Assay results from PMC3371017.
Results are given in words; binding and its absence hold for the method and conditions named. In cells and extracts the contact can be indirect. Some entries that bind do so weakly or less than the wild type. For part of these data: Where a sequence is shown, tags or fusion partners need not be part of it.

Chains of the proteins cited; added tags and fusions are not shown. Lines headed by an entry give the natural chain unless they say otherwise; changes in a name come on top.
UniProt Q04206: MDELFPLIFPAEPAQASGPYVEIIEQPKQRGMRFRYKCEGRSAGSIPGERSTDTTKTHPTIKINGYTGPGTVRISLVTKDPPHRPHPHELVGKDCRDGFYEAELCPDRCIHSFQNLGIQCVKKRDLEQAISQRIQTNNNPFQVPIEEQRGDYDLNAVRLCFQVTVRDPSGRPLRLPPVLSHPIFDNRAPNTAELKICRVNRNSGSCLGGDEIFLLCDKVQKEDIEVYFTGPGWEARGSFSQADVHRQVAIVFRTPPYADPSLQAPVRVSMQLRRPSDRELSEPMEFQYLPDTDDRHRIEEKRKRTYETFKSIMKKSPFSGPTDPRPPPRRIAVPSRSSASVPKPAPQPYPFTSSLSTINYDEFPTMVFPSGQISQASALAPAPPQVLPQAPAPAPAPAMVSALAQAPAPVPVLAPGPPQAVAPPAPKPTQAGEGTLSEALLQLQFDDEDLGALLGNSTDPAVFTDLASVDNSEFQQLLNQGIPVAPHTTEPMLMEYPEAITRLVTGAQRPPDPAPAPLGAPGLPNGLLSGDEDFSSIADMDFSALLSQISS
UniProt Q13547: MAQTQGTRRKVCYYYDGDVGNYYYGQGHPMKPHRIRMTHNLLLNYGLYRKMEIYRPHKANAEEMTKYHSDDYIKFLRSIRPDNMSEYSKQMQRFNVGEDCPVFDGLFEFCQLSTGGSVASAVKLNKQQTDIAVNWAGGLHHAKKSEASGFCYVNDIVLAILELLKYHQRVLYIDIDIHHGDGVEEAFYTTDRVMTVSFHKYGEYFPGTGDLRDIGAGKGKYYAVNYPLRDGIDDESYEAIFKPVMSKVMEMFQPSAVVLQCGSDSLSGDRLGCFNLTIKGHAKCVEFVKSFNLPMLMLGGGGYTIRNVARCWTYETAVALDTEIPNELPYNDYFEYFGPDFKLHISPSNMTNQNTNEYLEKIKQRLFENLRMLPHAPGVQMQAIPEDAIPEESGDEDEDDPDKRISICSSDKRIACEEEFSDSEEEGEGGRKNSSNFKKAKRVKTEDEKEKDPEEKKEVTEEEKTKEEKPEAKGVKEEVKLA

Columns and labels:
HA-p65 wild type (human) = HA-p65 wild type (human) (UniProt Q04206); assay: co-IP; HA-p65 wt or S547A immunoprecipitated with HA antibody from lysates of transfected HEK-293 cells after 5 hours of etoposide treatment; IPLS buffer (20 mM Tris HCl, 120 mM NaCl, 0.5 mM EDTA, 0.5% NP40, 10% glycerol, pH 7,5), 4°C; co-immunoprecipitated HDAC1 detected by western blotting
HA-p65 S547A (human) = HA-p65 S547A (human) (UniProt Q04206); assay: as above
[1] = target: T1, GST-ATM(1–247) fusion protein (UniProt Q13315); assay: pull-down; GST or GST-ATM(1-247) on glutathione agarose beads, incubated 2 hours at 4°C with pre-cleared lysate of HEK-293 cells transfected with pCMV-HA p65 wt; LB buffer (50 mM Tris HCl, 150 mM NaCl, 2 mM EDTA, 1% NP-40, 10% glycerol, pH 8.00); p65 detected by immunoblotting; only the target purified
T1 sequence: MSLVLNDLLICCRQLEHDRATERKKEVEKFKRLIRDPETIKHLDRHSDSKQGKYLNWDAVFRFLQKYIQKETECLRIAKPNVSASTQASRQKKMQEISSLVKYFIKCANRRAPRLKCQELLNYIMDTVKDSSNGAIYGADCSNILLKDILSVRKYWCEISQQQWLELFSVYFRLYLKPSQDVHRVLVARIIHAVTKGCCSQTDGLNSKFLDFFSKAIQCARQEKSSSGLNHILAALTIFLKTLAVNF

| Substance | binding (HA-p65 wild type (human)) | binding (HA-p65 S547A (human)) | binding [1] |
| --- | --- | --- | --- |
| HDAC1 (from UniProt Q13547 1-482) (enzyme) | binds | no binding |  |
| HA-p65 wild type (from UniProt Q04206 1-551) |  |  | binds |
